Measurements as given in the supplement of paper PMC6078165.
The reference is the same well before dosing, and untreated signal decays as well.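 Labels refer to human fibroblasts, largely primary: uterine (C12385, HUF), lung (H6013), bone (Hs27A), adrenal (HADF), skin (WS1), plus mammary HMF and breast cancer-associated Hs343T. Cancer lines are basal-like or mesenchymal-like triple-negative breast cancer. The paper counts as hits responses shifting over 3x the replicate standard deviation. The tissue of the other fibroblasts is not given here.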

System: Hs578T
Assay: relative JC-1 red fluorescence (viability) vs pre-drug, coculture with fibroblast (fraction); higher = more viable cancer cells
Protocol: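 JC-1 labelled TNBC cells cocultured 1:1 (1,500 cells each) with CellTrace Violet stained primary or stromal fibroblasts in 384-well plates in FluoroBrite medium, treated with one of 42 anticancer drugs at 0.1, 1, 10 or 100 uM. JC-1 red fluorescence (mitochondrial integrity in cancer cells only) was read by plate reader every 8 h for 72 h. Values are normalised to each well's pre-drug value. The stock of one drug was tenfold lower, so its dose labels may be too high.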

CC/C(=C(\c1ccccc1)c1ccc(OCCN(C)C)cc1)c1ccccc1 [Tamoxifen]
relative JC-1 red fluorescence
Conditions | 8 h | 16 h | 24 h | 32 h | 40 h | 48 h | 56 h | 64 h | 72 h
1 µM, coculture fibroblast: C12385 | – | – | – | – | – | 0.508 | 0.49 | 0.49 | 0.488
1 µM, coculture fibroblast: H6013 | – | – | – | – | – | 0.834 | 0.817 | 0.816 | 0.796
1 µM, coculture fibroblast: H6019 | – | – | – | – | – | 0.5121 | 0.477 | 0.456 | 0.4265
1 µM, coculture fibroblast: H6076 | – | – | – | – | – | 0.73 | 0.713 | 0.698 | 0.693
1 µM, coculture fibroblast: H6231 | – | – | – | – | – | 0.632 | 0.584 | 0.564 | 0.546
1 µM, coculture fibroblast: HADF | – | – | – | – | – | 0.703 | 0.666 | 0.656 | 0.626
1 µM, coculture fibroblast: HCFa | – | – | – | – | – | 0.68 | 0.653 | 0.637 | 0.604
1 µM, coculture fibroblast: HCPF | – | – | – | – | 0.705 | 0.688 | 0.676 | 0.635 | 0.618
1 µM, coculture fibroblast: HHSteC | – | – | – | – | 0.674 | 0.635 | 0.601 | 0.575 | 0.536
1 µM, coculture fibroblast: HMF | – | – | – | – | 0.686 | 0.664 | 0.644 | 0.613 | 0.6
1 µM, coculture fibroblast: HPFa | – | – | – | – | 0.677 | 0.627 | 0.577 | 0.548 | 0.5
1 µM, coculture fibroblast: HUF | – | – | – | – | 0.527 | 0.492 | 0.456 | 0.449 | 0.443
1 µM, coculture fibroblast: Hs27A | – | – | – | – | 0.678 | 0.657 | 0.616 | 0.611 | 0.558
1 µM, coculture fibroblast: Hs343T | – | – | – | – | 0.6673 | 0.629 | 0.598 | 0.573 | 0.571
1 µM, coculture fibroblast: WS1 | – | – | – | – | 0.484 | 0.462 | 0.434 | 0.43 | 0.423
10 µM, coculture fibroblast: C12385 | 0.835 | 0.795 | 0.793 | 0.82 | 0.83 | 0.8492 | 0.859 | 0.8581 | 0.857
10 µM, coculture fibroblast: H6013 | 0.941 | 0.9484 | 0.948 | 0.902 | 0.851 | 0.818 | 0.767 | 0.802 | 0.792
10 µM, coculture fibroblast: H6019 | 0.8041 | 0.81 | 0.815 | 0.803 | 0.776 | 0.745 | 0.714 | 0.678 | 0.648
10 µM, coculture fibroblast: H6076 | 0.937 | 0.943 | 0.934 | 0.937 | 0.904 | 0.907 | 0.872 | 0.841 | 0.814
10 µM, coculture fibroblast: H6231 | 0.838 | 0.951 | 0.942 | 0.913 | 0.881 | 0.882 | 0.8392 | 0.819 | 0.794
10 µM, coculture fibroblast: HADF | 0.919 | 0.963 | 0.829 | 0.881 | 0.861 | 0.819 | 0.9229 | 0.871 | 0.812
10 µM, coculture fibroblast: HCFa | 0.9298 | 0.968 | 0.934 | 0.871 | 0.883 | 0.983 | 0.961 | 0.947 | 0.901
10 µM, coculture fibroblast: HCPF | 0.971 | 0.948 | 0.969 | 0.96 | 0.95 | 0.9694 | 0.967 | 0.942 | 0.912
10 µM, coculture fibroblast: HHSteC | 0.926 | 0.918 | 0.93 | 0.95344 | 0.9463 | 0.9639 | 0.954 | 0.938 | 0.918
10 µM, coculture fibroblast: HMF | 0.955 | 0.947 | 0.876 | 0.931 | 0.905 | 0.897 | 0.86 | 0.839 | 0.801
10 µM, coculture fibroblast: HPFa | 0.921 | 0.939 | 0.952 | 0.976 | 0.97 | 0.927 | 0.938 | 0.929 | 0.8811
10 µM, coculture fibroblast: HUF | 0.8714 | 0.822 | 0.857 | 0.827 | 0.812 | 0.794 | 0.753 | 0.734 | 0.708
10 µM, coculture fibroblast: Hs27A | 0.953 | 0.932 | 0.834 | 0.831 | 0.778 | 0.8 | 0.851 | 0.718 | 0.868
10 µM, coculture fibroblast: Hs343T | 0.821 | 0.896 | 0.875 | 0.894 | 0.961 | 0.949 | 0.903 | 0.87 | 0.8433
10 µM, coculture fibroblast: WS1 | 0.8216 | 0.848 | 0.844 | 0.886 | 0.905 | 0.937 | 0.933 | 0.931 | 0.915

relative JC-1 red fluorescence
Conditions | 8 h | 16 h | 24 h | 32 h | 40 h | 48 h | 56 h | 64 h | 72 h
1 µM | – | – | – | – | – | 0.635 | 0.613 | 0.568 | 0.537
10 µM | 0.917 | 0.901 | 0.925 | 0.927 | 0.9 | 0.887 | 0.896 | 0.865 | 0.865
